Assay results taken from article PMC10646984 (Biomacromolecules, 2023).
Results are given in words; binding and its absence hold for the method and conditions named. Some results given as binding are weak or reduced against the parent protein; the word gives no strength.

Amino acid sequences for entries named in this document (tags omitted).
UniProt P17931: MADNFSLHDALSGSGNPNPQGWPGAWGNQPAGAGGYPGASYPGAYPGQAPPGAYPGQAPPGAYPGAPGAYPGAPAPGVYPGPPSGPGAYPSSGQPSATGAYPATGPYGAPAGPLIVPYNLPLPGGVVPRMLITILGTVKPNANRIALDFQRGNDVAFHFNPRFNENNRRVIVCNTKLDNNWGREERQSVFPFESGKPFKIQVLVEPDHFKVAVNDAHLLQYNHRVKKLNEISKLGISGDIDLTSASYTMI

T1: asialofetuin (ASF; a glycoprotein terminated with LacNAc moieties) (UniProt P12763)
T1 sequence (chain, glycoprotein terminated with LacNAc moieties (desialylated glycans)): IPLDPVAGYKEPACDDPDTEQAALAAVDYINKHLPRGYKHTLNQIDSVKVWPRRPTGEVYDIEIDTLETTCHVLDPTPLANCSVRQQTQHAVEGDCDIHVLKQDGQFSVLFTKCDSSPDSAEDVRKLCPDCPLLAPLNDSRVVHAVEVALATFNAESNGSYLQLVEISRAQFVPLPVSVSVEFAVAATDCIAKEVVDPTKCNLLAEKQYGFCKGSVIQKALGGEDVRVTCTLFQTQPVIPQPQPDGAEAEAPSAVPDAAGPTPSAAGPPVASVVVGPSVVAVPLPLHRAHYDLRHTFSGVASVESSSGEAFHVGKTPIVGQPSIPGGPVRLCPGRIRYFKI


Biological target: T1, asialofetuin (ASF; a glycoprotein terminated with LacNAc moieties)
Experiment: ELISA; competitive: ASF (0.1 μM in PBS) coated on the plate; galectin ([…] Gal-1 and Gal-3, 1 μM Gal-8 and Gal-9) incubated 2 h with serial dilutions of lactose or Lac-CS-DDMs in EPBS with 10% DMSO; residual bound galectin detected with anti-His antibody-HRP; both purified

| binding | Molecule |
| --- | --- |
| binds | Recombinant human galectin-3 (Gal-3), N-terminal His-tagged (from UniProt P17931 1-250) |
| binds | Recombinant human galectin-8 (Gal-8) with a full-length peptide linker of 34 aa, N-terminal His-tagged (natural protein, UniProt O00214 1-317, looked up, galectin-8 (tandem repeat), human; contains a full-length peptide linker of 34 aa (3717 Da); ca. 36 kDa; cloned in pET-Duet1 (AscI/NotI); plasmid a gift from Prof; L. Elling; source: E. coli Rosetta 2(DE3)pLysS, purified (Ni-NTA); not shown: His tag, N-terminal, kept) MMLSLNNLQNIIYNPVIPFVGTIPDQLDPGTLIVIRGHVPSDADRFQVDLQNGSSMKPRADVAFHFNPRFKRAGCIVCNTLINEKWGREEITYDTPFKREKSFEIVIMVLKDKFQVAVNGKHTLLYGHRIGPEKIDTLGIYGKVNIHSIGFSFSSDLQSTQASSLELTEISRENVPKSGTPQLRLPFAARLNTPMGPGRTVVVKGEVNANAKSFNVDLLAGKSKDIALHLNPRLNIKAFVRNSFLQESWGEEERNITSFPFSPGMYFEMIIYCDVREFKVAVNGVHSLEYKHRFKELSSIDTLEINGDIHLLEVRSW |
